{"source": "paper PMC3616908", "key": {"[1]": {"molecular_target": "T1, Chk1 (fusion of the triple-plasmid based yeast two-hybrid assay) (S. cerevisiae) (UniProt P38147)", "T1 sequence": "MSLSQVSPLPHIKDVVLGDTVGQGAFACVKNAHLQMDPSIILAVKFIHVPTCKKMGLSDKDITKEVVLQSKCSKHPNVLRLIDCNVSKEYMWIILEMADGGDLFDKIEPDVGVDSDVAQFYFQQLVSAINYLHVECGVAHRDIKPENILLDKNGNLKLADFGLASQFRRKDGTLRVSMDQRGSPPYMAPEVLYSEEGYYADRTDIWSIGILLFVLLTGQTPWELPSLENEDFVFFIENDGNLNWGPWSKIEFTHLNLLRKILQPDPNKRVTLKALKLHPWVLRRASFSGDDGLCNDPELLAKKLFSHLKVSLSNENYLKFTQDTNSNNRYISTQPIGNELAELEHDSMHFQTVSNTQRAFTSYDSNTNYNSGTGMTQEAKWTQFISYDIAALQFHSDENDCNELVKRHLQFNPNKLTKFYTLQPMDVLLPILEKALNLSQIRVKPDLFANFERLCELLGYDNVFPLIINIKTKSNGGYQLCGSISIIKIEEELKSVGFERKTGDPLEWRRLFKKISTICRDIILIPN", "assay": "two-hybrid; triple-plasmid based assay in cdc28-as1 cells synchronised with nocodazole (G2/M, mock treated) or alpha factor (G1, mock or 1-NMPP1) before induction of the bait"}, "[2]": {"molecular_target": "T1, Chk1 (fusion of the triple-plasmid based yeast two-hybrid assay) (S. cerevisiae)", "assay": "condition: only with 1-NMPP1 (Cdc28-as1 inhibited) in G2/M arrested cells; two-hybrid; triple-plasmid based assay in cdc28-as1 cells arrested in G2/M with nocodazole and treated with 1-NMPP1 (Cdc28-as1 inhibited) before induction of the bait"}, "[3]": {"molecular_target": "T2, Dpb11-13MYC (S. cerevisiae) (UniProt P47027)", "T2 sequence": "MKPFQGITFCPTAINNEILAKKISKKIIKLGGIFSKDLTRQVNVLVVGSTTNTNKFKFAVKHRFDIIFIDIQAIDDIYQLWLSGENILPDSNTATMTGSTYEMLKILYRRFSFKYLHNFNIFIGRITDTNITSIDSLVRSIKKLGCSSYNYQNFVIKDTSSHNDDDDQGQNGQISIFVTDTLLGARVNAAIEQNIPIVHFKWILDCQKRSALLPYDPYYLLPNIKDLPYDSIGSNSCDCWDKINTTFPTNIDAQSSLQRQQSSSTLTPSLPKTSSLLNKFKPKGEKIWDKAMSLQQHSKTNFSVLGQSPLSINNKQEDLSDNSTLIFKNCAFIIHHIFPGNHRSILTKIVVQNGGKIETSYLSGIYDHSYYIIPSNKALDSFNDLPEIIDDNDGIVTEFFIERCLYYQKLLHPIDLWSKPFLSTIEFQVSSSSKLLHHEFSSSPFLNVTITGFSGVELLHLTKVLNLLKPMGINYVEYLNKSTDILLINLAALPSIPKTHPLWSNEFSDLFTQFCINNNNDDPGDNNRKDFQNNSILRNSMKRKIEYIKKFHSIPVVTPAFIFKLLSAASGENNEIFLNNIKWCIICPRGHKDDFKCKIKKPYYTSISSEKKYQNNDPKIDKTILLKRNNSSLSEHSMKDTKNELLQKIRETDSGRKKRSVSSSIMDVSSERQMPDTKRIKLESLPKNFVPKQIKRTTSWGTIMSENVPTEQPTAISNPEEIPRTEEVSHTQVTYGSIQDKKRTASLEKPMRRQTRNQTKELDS", "assay": "co-IP; anti-MYC (Dpb11-13MYC) IP from clarified crude extract of nocodazole-arrested wild type cells, mock treated (no bleocin); western blot for Rad9"}, "[4]": {"molecular_target": "T3, Chk1-3FLAG (S. cerevisiae) (UniProt P38147)", "T3 sequence": "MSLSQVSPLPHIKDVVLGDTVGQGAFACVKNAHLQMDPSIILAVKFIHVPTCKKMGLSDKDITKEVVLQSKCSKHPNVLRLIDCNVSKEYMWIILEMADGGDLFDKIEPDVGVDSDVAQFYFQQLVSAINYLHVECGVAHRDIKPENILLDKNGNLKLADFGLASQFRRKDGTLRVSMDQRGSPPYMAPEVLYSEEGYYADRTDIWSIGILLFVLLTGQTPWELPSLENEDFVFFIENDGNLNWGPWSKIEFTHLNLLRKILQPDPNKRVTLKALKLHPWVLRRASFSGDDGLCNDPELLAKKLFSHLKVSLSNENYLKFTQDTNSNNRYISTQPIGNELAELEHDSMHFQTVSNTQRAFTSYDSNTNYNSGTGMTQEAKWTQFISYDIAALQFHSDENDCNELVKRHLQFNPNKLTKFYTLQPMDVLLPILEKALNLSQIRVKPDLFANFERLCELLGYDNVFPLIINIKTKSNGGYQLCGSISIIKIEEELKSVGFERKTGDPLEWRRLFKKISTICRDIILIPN", "assay": "co-IP; anti-FLAG (Chk1-3FLAG) or anti-MYC (Dpb11-13MYC) IP from 1 ml clarified crude extract (10 mg/ml) of nocodazole-arrested wild type or rad9^CDK1-9A cells, mock or 20 ug/ml bleocin for 45 min; IgG mock IP as control; western blot"}, "[5]": {"molecular_target": "T2, Dpb11-13MYC (S. cerevisiae)", "assay": "co-IP; anti-FLAG (Chk1-3FLAG) or anti-MYC (Dpb11-13MYC) IP from 1 ml clarified crude extract (10 mg/ml) of nocodazole-arrested wild type or rad9^CDK1-9A cells, mock or 20 ug/ml bleocin for 45 min; IgG mock IP as control; western blot"}}, "note": "Results are given in words; binding and its absence hold for the method and conditions named. For some assays here: Binding seen in cells or lysates may run through a third protein. Some binding calls cover weakened binding; strength is not graded here. Sequences can lack the tags named with a protein.", "data": [{"binder": "Rad9 (fusion of the triple-plasmid based yeast two-hybrid assay) (protein, UniProt P14737 1-1309) MSGQLVQWKSSPDRVTQSAIKEALHSPLADGDMNEMNVPVDPLENKVNSTNIIEGSPKANPNPVKFMNTSEIFQKSLGLLDESPRHDDELNIEVGDNDRPNANILHNERTPDLDRIANFFKSNRTPGKENLLTKYQSSDLEDTPLMLRKKMTFQTPTDPLEQKTFKKLKSDTGFCYYGEQNDGEENASLEVTEADATFVQMAERSADNYDCALEGIVTPKRYKDELSKSGGMQDERVQKTQIMISAESPNSISSYDKNKITGNGRTTRNVNKVFNNNEDNIGAIEEKNPVKKKSENYSSDDLRERNNQIIQSNESEEINELEKNLNVSGRENDVNNLDIDINSAVSGTPSRNNAEEEMYSSESVNNREPSKKWIFRYSKDKTENNSNRSTQIVNNPRTQEMPLDSISIDTQPLSKSFNTETNNELETQIIVSSLSQGISAQKGPVFHSTGQTEEIKTQIINSPEQNALNATFETPVTLSRINFEPILEVPETSSPSKNTMSKPSNSSPIPKEKDTFNIHEREVETNNVFSNDIQNSSNAATRDDIIIAGSSDFNEQKEITDRIYLQLSGKQISDSGSDETERMSPNELDTKKESTIMSEVELTQELPEVEEQQDLQTSPKKLVVEEETLMEIKKSKGNSLQLHDDNKECNSDKQDGTESLDVALIEHESKGQSSELQKNLMQLFPSESQEIIQNRRTIKRRQKDTIEIGEEEENRSTKTSPTKHLKRNSDLDAASIKREPSCSITIQTGETGSGKDSKEQSYVFPEGIRTADNSFLSKDDIIFGNAVWCQYTWNYKFYPGILLEVDTNQDGCWIYFETGRSLTKDEDIYYLDIRIGDAVTFDGNEYVVVGLECRSHDLNIIRCIRGYDTVHLKKKNASGLLGKRTLIKALSSISLDLSEWAKRAKIILEDNEKNKGDAYRYLRHPIRGRKSMTNVLSPKKHTDDEKDINTHTEVYNNEIESSSEKKEIVKKDSRDALAEHAGAPSLLFSSGEIRTGNVFDKCIFVLTSLFENREELRQTIESQGGTVIESGFSTLFNFTHPLAKSLVNKGNTDNIRELALKLAWKPHSLFADCRFACLITKRHLRSLKYLETLALGWPTLHWKFISACIEKKRIVPHLIYQYLLPSGESFRLSLDSPSKGGIIKSNNIFSFYTQFLRGSNLRDQICGVKKMLNDYIVIVWGRSELDSFVKFAFACLSAGRMLTIDLPNIDVDDTEPLLNALDSLVPRIGSELSNRKLKFLIYANENNGKSQMKLLERLRSQISLKFKKFNYIFHTESKEWLIQTIINEDTGFHDDITDNDIYNTISEVR", "values": [{"measurement": "binding", "setting": "[1]", "value": "binds"}, {"measurement": "binding", "setting": "[2]", "value": "no binding"}]}, {"binder": "Rad9 (endogenous) (protein, UniProt P14737 1-1309) MSGQLVQWKSSPDRVTQSAIKEALHSPLADGDMNEMNVPVDPLENKVNSTNIIEGSPKANPNPVKFMNTSEIFQKSLGLLDESPRHDDELNIEVGDNDRPNANILHNERTPDLDRIANFFKSNRTPGKENLLTKYQSSDLEDTPLMLRKKMTFQTPTDPLEQKTFKKLKSDTGFCYYGEQNDGEENASLEVTEADATFVQMAERSADNYDCALEGIVTPKRYKDELSKSGGMQDERVQKTQIMISAESPNSISSYDKNKITGNGRTTRNVNKVFNNNEDNIGAIEEKNPVKKKSENYSSDDLRERNNQIIQSNESEEINELEKNLNVSGRENDVNNLDIDINSAVSGTPSRNNAEEEMYSSESVNNREPSKKWIFRYSKDKTENNSNRSTQIVNNPRTQEMPLDSISIDTQPLSKSFNTETNNELETQIIVSSLSQGISAQKGPVFHSTGQTEEIKTQIINSPEQNALNATFETPVTLSRINFEPILEVPETSSPSKNTMSKPSNSSPIPKEKDTFNIHEREVETNNVFSNDIQNSSNAATRDDIIIAGSSDFNEQKEITDRIYLQLSGKQISDSGSDETERMSPNELDTKKESTIMSEVELTQELPEVEEQQDLQTSPKKLVVEEETLMEIKKSKGNSLQLHDDNKECNSDKQDGTESLDVALIEHESKGQSSELQKNLMQLFPSESQEIIQNRRTIKRRQKDTIEIGEEEENRSTKTSPTKHLKRNSDLDAASIKREPSCSITIQTGETGSGKDSKEQSYVFPEGIRTADNSFLSKDDIIFGNAVWCQYTWNYKFYPGILLEVDTNQDGCWIYFETGRSLTKDEDIYYLDIRIGDAVTFDGNEYVVVGLECRSHDLNIIRCIRGYDTVHLKKKNASGLLGKRTLIKALSSISLDLSEWAKRAKIILEDNEKNKGDAYRYLRHPIRGRKSMTNVLSPKKHTDDEKDINTHTEVYNNEIESSSEKKEIVKKDSRDALAEHAGAPSLLFSSGEIRTGNVFDKCIFVLTSLFENREELRQTIESQGGTVIESGFSTLFNFTHPLAKSLVNKGNTDNIRELALKLAWKPHSLFADCRFACLITKRHLRSLKYLETLALGWPTLHWKFISACIEKKRIVPHLIYQYLLPSGESFRLSLDSPSKGGIIKSNNIFSFYTQFLRGSNLRDQICGVKKMLNDYIVIVWGRSELDSFVKFAFACLSAGRMLTIDLPNIDVDDTEPLLNALDSLVPRIGSELSNRKLKFLIYANENNGKSQMKLLERLRSQISLKFKKFNYIFHTESKEWLIQTIINEDTGFHDDITDNDIYNTISEVR", "values": [{"measurement": "binding", "setting": "[3]", "value": "no binding (condition: mock treated cells (no bleocin))"}, {"measurement": "binding", "setting": "[4]", "value": "binds"}, {"measurement": "binding", "setting": "[5]", "value": "binds"}]}]}
